Results: article PMC6110521
No constants are given. Whether binding was seen depends on the method and setting. In cells and extracts the contact can be indirect. Some binding calls cover weakened binding; strength is not graded here. Where a sequence is shown, tags or fusion partners need not be part of it.

By UniProt entry, the sequences of proteins in these tests, tags left out.
UniProt Q13547: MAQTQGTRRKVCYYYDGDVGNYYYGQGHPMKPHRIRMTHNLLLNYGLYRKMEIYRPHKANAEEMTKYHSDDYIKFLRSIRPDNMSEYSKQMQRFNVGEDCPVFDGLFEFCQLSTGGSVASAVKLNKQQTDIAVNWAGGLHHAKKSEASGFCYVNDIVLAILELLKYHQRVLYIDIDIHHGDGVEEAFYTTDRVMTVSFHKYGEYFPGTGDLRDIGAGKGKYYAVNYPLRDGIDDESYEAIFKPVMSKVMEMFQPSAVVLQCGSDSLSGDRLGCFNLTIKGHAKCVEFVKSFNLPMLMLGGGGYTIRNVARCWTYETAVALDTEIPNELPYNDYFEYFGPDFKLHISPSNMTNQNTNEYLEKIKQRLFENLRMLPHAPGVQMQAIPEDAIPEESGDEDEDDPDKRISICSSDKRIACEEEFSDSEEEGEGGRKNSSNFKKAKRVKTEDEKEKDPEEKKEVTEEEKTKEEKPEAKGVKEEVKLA
UniProt O09106: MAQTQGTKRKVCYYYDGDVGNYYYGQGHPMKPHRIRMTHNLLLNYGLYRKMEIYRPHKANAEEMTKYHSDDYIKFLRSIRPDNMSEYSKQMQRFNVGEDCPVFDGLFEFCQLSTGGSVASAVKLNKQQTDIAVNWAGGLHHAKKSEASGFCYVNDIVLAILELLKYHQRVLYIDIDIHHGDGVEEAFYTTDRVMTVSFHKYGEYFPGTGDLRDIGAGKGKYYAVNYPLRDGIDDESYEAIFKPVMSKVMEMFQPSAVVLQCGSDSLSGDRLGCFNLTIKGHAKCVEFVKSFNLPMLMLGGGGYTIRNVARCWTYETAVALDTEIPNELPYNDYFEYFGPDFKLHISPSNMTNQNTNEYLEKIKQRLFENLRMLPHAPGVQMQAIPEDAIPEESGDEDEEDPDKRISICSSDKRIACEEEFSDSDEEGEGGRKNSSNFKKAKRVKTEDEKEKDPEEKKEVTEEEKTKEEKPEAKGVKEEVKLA

T1: flag-tagged SMYD4 (SMYD4^flag), wild-type human, overexpressed in HL-1 cells (human) (UniProt Q8IYR2)
T1 sequence: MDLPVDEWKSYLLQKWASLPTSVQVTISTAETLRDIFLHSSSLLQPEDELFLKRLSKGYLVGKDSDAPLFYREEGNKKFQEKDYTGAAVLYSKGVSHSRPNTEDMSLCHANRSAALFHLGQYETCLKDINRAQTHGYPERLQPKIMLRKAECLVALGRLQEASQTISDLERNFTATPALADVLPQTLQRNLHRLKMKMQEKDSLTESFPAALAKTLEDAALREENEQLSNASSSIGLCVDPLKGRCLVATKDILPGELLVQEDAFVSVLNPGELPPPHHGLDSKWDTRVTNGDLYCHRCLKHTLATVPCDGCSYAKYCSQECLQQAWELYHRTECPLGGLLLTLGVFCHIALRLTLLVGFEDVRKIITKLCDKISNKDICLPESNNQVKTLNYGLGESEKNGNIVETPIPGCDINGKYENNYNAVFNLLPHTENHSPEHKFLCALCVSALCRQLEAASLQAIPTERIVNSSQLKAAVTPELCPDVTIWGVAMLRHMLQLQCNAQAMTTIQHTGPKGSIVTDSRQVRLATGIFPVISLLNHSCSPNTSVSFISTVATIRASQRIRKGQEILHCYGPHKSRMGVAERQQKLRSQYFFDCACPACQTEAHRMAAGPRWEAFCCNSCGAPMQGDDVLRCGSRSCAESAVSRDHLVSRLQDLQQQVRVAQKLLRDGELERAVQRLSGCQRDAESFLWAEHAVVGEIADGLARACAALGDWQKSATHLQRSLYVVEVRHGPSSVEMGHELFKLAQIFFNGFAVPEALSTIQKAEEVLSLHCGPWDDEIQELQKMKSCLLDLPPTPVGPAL


Columns and labels:
[1] = molecular target: T1, flag-tagged SMYD4 (SMYD4^flag), wild-type human, overexpressed in HL-1 cells (human); experiment: co-IP; SMYD4^flag (wild type or G345D) overexpressed in HL-1 cells; cell extracts immunoprecipitated with anti-FLAG affinity gel, western blotting
[2] = molecular target: HA-tagged HDAC1 (HDAC1^HA), overexpressed in HEK293T cells (UniProt Q13547); experiment: co-IP; SMYD4^flag and HDAC1^HA co-overexpressed in HEK293T cells; co-immunoprecipitation with anti-tag antibodies, western blotting

Row | binding [1] | binding [2] | Molecule
1 | binds |  | histone deacetylase 1 (HDAC1), in HL-1 cells (from UniProt O09106 1-482) (enzyme)
2 |  | binds | flag-tagged SMYD4 (SMYD4^flag), wild-type human, overexpressed in HEK293T cells (enzyme, UniProt Q8IYR2 1-804) MDLPVDEWKSYLLQKWASLPTSVQVTISTAETLRDIFLHSSSLLQPEDELFLKRLSKGYLVGKDSDAPLFYREEGNKKFQEKDYTGAAVLYSKGVSHSRPNTEDMSLCHANRSAALFHLGQYETCLKDINRAQTHGYPERLQPKIMLRKAECLVALGRLQEASQTISDLERNFTATPALADVLPQTLQRNLHRLKMKMQEKDSLTESFPAALAKTLEDAALREENEQLSNASSSIGLCVDPLKGRCLVATKDILPGELLVQEDAFVSVLNPGELPPPHHGLDSKWDTRVTNGDLYCHRCLKHTLATVPCDGCSYAKYCSQECLQQAWELYHRTECPLGGLLLTLGVFCHIALRLTLLVGFEDVRKIITKLCDKISNKDICLPESNNQVKTLNYGLGESEKNGNIVETPIPGCDINGKYENNYNAVFNLLPHTENHSPEHKFLCALCVSALCRQLEAASLQAIPTERIVNSSQLKAAVTPELCPDVTIWGVAMLRHMLQLQCNAQAMTTIQHTGPKGSIVTDSRQVRLATGIFPVISLLNHSCSPNTSVSFISTVATIRASQRIRKGQEILHCYGPHKSRMGVAERQQKLRSQYFFDCACPACQTEAHRMAAGPRWEAFCCNSCGAPMQGDDVLRCGSRSCAESAVSRDHLVSRLQDLQQQVRVAQKLLRDGELERAVQRLSGCQRDAESFLWAEHAVVGEIADGLARACAALGDWQKSATHLQRSLYVVEVRHGPSSVEMGHELFKLAQIFFNGFAVPEALSTIQKAEEVLSLHCGPWDDEIQELQKMKSCLLDLPPTPVGPAL
